Values quoted from earlier work in patent US20250090522A1 (priority 2021, published 2025).

Settings: in vivo

O=C(O)COCCN1CCN([C@H](c2ccccc2)c2ccc(Cl)cc2)CC1 [Levocetirizine]
time to peak plasma level: 0.9 h
